Here are results for one sequence from paper PMC11742319, “Phosphorylation regulates the chromatin remodeler SMARCAD1 in nucleosome binding, ATP hydrolysis, and histone exchange”.

By UniProt entry, the sequences of proteins in these tests, tags left out. Residues count along the entry.
UniProt Q9H4L7, whole entry V974A: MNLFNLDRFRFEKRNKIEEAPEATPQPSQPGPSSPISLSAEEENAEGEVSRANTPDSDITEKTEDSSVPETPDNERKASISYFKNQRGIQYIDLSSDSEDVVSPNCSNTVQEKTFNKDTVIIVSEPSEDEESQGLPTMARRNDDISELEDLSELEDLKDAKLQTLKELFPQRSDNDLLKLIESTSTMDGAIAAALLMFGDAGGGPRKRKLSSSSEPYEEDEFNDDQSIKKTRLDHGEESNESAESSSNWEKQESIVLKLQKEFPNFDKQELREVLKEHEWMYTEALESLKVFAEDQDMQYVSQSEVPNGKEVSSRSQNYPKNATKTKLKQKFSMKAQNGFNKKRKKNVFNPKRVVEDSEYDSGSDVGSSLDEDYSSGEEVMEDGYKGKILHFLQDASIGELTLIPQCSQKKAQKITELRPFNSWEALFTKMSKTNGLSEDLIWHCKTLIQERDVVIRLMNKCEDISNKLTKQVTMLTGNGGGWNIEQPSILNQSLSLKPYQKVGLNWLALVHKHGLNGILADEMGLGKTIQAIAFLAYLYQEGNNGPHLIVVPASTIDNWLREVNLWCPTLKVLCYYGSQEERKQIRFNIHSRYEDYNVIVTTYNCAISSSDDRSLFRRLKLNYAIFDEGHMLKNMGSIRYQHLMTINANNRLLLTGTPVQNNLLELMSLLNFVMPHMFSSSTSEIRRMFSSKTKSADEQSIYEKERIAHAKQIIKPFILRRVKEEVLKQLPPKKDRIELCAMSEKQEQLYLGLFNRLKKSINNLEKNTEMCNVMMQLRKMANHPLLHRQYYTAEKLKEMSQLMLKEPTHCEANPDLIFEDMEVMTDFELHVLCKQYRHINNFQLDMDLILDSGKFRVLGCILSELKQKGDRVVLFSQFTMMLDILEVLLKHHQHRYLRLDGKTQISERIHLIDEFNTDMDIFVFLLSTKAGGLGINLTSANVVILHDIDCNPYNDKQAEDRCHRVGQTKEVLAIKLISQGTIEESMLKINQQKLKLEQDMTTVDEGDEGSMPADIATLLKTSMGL
UniProt Q9H4L7, 351-1026 V974A: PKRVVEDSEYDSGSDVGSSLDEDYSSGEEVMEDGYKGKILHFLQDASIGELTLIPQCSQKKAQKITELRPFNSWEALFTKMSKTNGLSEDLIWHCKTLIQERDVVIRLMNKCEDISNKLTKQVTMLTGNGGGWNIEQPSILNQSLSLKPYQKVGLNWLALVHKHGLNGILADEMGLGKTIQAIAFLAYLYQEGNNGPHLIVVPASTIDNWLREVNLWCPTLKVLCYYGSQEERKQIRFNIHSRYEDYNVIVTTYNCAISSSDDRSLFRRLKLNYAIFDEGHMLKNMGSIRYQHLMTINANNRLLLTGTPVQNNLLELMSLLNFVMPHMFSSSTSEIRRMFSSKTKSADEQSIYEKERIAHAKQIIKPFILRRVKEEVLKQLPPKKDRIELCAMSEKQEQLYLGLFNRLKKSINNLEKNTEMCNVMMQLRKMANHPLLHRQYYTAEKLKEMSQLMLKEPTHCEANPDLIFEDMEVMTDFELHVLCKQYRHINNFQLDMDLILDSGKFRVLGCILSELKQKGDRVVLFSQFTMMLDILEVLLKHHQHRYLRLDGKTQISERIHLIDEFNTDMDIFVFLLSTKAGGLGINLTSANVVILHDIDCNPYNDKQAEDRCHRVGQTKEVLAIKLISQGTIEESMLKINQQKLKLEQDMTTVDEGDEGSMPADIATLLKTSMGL

The target of data set [1] is WT SMARCAD1, phosphorylated V974A (human) (UniProt Q9H4L7). Nature of the data set: fluorescence polarization. Particulars: FP: 50 mM HEPES pH 7.5, 2 mM DTT, 10% glycerol, 0.01% CHAPS, 0.01% NP-40, no added salt stated, room temperature 30 min, 10 nM nucleosome or DNA, 0-5 uM SMARCAD1, recombinant protein, residues 1-1026, protein details: 6xHis (C- or N-terminal). On the technique in general: In fluorescence polarisation assays a small probe gives low polarisation when free and higher when bound to something large.

The target of data set [2] is Δ350 SMARCAD1, phosphorylated V974A,del1-350 (human) (UniProt Q9H4L7). The experiment in a line: fluorescence polarization. The note with it: FP: 50 mM HEPES pH 7.5, 2 mM DTT, 10% glycerol, 0.01% CHAPS, 0.01% NP-40, no added salt stated, room temperature 30 min, 10 nM nucleosome or DNA, 0-5 uM SMARCAD1, recombinant protein, residues 351-1026, protein details: 6xHis.

The exact form of at least one protein or probe is not confirmed.

What is called Kd is a measure of binding affinity in units of concentration. Turning to “CGAGCCAGGCCTGAGAATCCGGTGCCGAGGCCGCTCAATTGGTCGTAGACAGCTCTAGCACCGCTTAAACGCACGTACGCGCTGTCCCCCGCGTTTTAACCGCCAAGGGGATTACTCCCTAGTCTCCAGGCACGTGTCAGATATATACATCCAGGCCTTGTGTCG (double strand) [165 bp 601 DNA]”, the Kd in data set [1] was 98 nM; in data set [2] it was 105 nM.
